The values below come from publication PMC11166663.

Amino acid sequences for entries named in this document (tags omitted).
UniProt Q9Y4B6: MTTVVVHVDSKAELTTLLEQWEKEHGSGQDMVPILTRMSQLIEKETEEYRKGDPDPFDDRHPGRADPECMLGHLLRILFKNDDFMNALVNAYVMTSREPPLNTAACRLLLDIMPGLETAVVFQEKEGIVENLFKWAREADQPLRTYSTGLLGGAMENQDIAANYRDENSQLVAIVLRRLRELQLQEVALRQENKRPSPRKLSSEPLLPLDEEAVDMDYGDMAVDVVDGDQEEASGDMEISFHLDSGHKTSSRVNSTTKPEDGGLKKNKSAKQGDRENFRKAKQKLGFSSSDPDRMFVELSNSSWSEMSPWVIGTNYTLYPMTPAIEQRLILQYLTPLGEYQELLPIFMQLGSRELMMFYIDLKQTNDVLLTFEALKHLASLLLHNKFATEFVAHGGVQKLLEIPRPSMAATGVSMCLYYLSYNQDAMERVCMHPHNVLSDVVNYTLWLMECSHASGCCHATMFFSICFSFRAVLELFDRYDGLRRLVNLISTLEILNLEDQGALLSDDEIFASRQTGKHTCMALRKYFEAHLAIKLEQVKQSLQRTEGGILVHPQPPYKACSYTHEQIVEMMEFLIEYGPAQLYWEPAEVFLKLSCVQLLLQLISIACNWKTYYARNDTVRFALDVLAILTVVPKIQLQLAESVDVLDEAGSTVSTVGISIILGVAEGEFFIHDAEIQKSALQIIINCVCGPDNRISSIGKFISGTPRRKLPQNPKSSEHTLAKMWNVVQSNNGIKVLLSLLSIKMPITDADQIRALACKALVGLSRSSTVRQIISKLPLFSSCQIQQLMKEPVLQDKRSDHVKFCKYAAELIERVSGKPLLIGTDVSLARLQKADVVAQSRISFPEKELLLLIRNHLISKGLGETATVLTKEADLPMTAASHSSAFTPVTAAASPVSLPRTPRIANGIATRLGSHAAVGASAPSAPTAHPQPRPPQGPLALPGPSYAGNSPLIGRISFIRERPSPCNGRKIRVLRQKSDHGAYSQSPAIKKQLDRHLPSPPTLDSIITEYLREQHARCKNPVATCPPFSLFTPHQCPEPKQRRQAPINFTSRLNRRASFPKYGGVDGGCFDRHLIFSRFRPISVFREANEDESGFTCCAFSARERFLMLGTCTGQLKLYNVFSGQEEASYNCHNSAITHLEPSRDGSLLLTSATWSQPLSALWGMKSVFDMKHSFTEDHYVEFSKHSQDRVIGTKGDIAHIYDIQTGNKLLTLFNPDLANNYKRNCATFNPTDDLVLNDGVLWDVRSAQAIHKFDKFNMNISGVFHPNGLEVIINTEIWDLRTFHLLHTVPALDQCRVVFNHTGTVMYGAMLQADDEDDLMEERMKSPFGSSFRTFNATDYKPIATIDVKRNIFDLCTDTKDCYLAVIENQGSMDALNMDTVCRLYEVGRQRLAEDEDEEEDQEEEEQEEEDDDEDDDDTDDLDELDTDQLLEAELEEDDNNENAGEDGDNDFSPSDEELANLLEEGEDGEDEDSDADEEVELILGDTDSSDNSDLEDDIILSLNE

One assay deals with Flag-Rheb (UniProt Q15382). As to the kind of experiment: co-IP; 293T cells transfected with empty vector, Flag-Rheb or Flag-DCAF1 for 48 h; NP-40 lysis buffer; IP with anti-Flag and agarose beads at 4 °C overnight; immunoblot of endogenous partners.
For assay [1], the target named is Ras homologue enriched in brain (Rheb), endogenous (human (endogenous in HEK293T, Huh7, HCT116 and EC109)) (UniProt Q15382). Kind of assay: co-IP; endogenous proteins in Huh7, HCT116 and EC109 cells; NP-40 lysis buffer; IP with anti-Rheb or anti-DCAF1 and agarose beads at 4 °C overnight; unrelated IgG as negative control; immunoblot.
Assay [2] deals with DDB1-CUL4-associated factor 1 (DCAF1), endogenous (human (endogenous in HEK293T, Huh7, HCT116 and EC109)) (UniProt Q9Y4B6). Described as above.
The target of a further assay is Flag-DCAF1 (UniProt Q9Y4B6). As to the kind of experiment: co-IP; 293T cells transfected with empty vector, Flag-Rheb or Flag-DCAF1 for 48 h; NP-40 lysis buffer; IP with anti-Flag and agarose beads at 4 °C overnight; immunoblot of endogenous partners.

Results are given in words; binding and its absence hold for the method and conditions named. In cells and extracts the contact can be indirect. Some entries that bind do so weakly or less than the wild type.

Turning to “DDB1, endogenous (from UniProt Q16531 1-1140)”, the binding entry with Flag-Rheb is on record as “binds”.

For the substance “DDB1-CUL4-associated factor 1 (DCAF1), endogenous (from UniProt Q9Y4B6 1-1507)”, the binding result (in assay [1]; with Flag-Rheb) was “binds” each time.

Regarding “CUL4a, endogenous (from UniProt Q13619 1-759)”, the binding result with Flag-Rheb is reported as “binds”.

“Ras homologue enriched in brain (Rheb), endogenous (from UniProt Q15382 1-184)”: the binding result (in assay [2]; with Flag-DCAF1) was “binds” throughout.
